# Results taken from patent US20240325370A1, “THERAPEUTIC REGIMENS OF A DEGRADER OF BRD9” (FOGHORN THERAPEUTICS INC., priority 2021, published 2024).
# At least one compound was matched to its structure with a doubt left.
# Test system: ASKA synovial sarcoma xenografts
# Assay: ASKA synovial sarcoma xenograft efficacy
# Format: in vivo
# Conditions: pazopanib 40 mg/kg QD oral, ifosfamide 80 mg/kg QD IV Days 0, 1, 2
# Experimental: A study was conducted to examine anti-tumor efficacy of compound S-D1 with BIW IV dosing of the racemate, compound D1, for 3 weeks utilizing a second xenograft model of human synovial sarcoma, ASKA. Vehicle (0.5% HPMC, 0.1% Tween 80 in water, pH 1.3 to 1.5), administered orally, was used as the general comparator for all test article responses (i.e., tumor growth and body weight changes). Pazopanib and ifosfamide, two agents currently used in clinic to treat synovial sarcoma patients were compared to compound D1 treatment alone. Pazopanib was administered orally at 40 mg/kg QD and ifosfamide was given IV at 80 mg/kg QD for the first 3 days (Days 0, 1, and 2) in the 3-week treatment period, mimicking the equivalent treatment regimens for both drugs in human patients.
structure (smiles),measurement,value
"Cc1ccc(Nc2nccc(N(C)c3ccc4c(C)n(C)nc4c3)n2)cc1S(N)(=O)=O [Pazopanib, reference compound]",tumor growth inhibition achieved,partial TGI
